We go through 22 targets from the supplement of paper PMC12595434, “Development of retinoid nuclear receptor pathway antagonists through targeting aldehyde dehydrogenase 1A3” (iScience, 2025).

By UniProt entry, the sequences of proteins in these tests, tags left out. Where a name states a change or a piece, a line headed by the entry shows the natural chain unless it says otherwise.
UniProt P30837: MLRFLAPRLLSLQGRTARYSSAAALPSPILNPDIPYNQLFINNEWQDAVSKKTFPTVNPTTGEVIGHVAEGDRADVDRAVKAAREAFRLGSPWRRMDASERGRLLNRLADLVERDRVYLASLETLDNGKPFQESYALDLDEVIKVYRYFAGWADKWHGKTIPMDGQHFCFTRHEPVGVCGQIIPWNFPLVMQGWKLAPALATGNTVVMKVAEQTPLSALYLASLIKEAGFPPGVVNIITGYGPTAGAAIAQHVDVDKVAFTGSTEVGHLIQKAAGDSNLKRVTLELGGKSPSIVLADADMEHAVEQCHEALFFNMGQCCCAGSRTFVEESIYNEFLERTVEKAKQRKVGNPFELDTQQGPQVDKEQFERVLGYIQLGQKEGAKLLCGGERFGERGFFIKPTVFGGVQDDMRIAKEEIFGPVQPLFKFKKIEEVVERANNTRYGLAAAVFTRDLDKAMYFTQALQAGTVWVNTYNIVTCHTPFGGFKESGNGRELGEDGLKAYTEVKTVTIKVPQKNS
UniProt P27338, whole entry: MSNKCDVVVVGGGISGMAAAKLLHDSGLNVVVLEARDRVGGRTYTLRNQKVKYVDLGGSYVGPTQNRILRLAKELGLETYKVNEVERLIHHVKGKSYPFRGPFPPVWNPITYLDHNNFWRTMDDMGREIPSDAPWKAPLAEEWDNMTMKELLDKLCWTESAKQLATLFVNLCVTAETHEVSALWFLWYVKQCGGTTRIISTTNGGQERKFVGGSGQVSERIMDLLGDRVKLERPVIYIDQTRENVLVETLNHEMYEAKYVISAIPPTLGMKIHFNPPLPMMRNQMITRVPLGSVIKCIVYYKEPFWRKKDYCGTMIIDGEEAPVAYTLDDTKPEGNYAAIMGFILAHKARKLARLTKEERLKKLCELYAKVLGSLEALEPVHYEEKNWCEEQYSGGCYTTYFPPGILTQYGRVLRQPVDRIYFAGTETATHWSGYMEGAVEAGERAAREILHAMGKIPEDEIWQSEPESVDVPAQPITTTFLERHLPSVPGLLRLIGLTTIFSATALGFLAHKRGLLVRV
UniProt P30043: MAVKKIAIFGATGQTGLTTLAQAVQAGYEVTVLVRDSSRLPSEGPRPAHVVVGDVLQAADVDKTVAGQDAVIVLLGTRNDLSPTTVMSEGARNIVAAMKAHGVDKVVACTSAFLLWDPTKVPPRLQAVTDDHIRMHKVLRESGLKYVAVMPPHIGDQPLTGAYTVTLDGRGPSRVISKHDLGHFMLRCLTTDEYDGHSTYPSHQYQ
UniProt P31040: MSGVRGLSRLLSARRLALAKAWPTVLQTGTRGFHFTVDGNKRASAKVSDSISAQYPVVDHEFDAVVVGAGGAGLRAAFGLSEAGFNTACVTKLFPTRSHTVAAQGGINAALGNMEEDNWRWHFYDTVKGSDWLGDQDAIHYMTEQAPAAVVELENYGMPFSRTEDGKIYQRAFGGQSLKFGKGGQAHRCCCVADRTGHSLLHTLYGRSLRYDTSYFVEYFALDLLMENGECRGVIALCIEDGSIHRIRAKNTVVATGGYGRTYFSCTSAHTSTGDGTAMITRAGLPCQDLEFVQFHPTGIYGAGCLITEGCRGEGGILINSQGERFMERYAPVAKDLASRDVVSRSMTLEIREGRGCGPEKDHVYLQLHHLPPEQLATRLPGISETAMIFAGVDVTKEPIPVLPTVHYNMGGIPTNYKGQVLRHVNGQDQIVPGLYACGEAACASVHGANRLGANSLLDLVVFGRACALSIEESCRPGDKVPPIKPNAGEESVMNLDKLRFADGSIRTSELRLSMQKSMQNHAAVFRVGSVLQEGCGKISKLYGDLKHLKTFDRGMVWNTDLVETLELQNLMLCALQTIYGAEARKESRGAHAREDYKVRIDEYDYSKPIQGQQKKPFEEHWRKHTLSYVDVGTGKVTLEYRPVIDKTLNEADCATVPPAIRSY
UniProt P31949: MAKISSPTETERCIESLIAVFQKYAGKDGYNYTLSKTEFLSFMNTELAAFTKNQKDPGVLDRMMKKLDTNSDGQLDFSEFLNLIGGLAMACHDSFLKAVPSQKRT
UniProt P20585: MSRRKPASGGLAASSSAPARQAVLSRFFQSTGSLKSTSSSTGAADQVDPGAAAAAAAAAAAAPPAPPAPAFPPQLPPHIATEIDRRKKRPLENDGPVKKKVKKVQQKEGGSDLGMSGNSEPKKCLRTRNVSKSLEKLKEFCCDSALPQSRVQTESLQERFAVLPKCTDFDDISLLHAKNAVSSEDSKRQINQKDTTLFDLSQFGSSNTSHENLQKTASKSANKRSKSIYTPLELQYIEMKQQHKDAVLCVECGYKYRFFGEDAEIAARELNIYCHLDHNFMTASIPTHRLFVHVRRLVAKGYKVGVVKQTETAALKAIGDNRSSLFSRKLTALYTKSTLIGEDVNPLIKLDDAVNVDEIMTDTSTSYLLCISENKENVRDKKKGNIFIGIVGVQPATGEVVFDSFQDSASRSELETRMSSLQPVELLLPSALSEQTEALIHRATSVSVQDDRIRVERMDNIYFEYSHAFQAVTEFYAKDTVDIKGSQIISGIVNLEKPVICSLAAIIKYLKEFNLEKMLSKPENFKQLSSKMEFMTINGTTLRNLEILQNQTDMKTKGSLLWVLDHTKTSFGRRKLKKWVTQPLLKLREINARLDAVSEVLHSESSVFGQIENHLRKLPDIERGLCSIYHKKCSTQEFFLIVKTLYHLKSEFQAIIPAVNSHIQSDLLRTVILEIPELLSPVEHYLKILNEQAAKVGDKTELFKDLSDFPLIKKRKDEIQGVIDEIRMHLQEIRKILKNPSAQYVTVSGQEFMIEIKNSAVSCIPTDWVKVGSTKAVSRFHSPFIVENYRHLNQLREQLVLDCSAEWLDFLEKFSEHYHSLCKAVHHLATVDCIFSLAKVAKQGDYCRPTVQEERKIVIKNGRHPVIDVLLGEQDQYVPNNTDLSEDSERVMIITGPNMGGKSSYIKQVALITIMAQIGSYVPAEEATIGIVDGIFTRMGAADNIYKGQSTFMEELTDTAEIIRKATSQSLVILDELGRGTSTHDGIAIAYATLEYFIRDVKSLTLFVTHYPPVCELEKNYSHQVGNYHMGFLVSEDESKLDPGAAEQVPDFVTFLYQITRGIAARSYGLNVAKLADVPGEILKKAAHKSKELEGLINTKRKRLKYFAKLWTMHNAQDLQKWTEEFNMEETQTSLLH
UniProt P26583: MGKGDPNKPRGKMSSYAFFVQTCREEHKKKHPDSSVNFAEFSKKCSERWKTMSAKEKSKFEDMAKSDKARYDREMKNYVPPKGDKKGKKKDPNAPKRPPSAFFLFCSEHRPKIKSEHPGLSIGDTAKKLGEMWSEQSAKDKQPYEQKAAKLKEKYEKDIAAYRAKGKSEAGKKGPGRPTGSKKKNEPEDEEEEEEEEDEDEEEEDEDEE
UniProt P34932: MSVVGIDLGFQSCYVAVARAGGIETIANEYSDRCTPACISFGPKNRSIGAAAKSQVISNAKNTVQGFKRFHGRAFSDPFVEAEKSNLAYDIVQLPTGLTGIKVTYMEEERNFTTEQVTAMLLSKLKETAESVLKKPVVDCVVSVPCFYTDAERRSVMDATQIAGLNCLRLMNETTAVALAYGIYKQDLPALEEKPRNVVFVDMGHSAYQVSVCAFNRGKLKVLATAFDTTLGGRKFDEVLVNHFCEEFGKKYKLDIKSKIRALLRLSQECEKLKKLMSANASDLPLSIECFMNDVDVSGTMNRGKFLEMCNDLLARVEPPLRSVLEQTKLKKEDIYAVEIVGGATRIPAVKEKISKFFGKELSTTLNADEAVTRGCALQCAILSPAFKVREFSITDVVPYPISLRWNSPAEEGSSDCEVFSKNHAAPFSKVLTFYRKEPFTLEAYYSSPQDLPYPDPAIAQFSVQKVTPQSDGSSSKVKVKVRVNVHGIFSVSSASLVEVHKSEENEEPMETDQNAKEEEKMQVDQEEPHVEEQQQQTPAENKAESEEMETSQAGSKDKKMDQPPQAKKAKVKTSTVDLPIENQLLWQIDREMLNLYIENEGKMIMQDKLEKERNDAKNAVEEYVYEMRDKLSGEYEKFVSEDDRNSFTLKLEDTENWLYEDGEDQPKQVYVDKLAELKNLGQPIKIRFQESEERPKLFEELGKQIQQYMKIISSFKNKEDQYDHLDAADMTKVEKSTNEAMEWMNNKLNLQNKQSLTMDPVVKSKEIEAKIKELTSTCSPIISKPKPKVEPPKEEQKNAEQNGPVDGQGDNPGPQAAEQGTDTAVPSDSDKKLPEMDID
UniProt P28288: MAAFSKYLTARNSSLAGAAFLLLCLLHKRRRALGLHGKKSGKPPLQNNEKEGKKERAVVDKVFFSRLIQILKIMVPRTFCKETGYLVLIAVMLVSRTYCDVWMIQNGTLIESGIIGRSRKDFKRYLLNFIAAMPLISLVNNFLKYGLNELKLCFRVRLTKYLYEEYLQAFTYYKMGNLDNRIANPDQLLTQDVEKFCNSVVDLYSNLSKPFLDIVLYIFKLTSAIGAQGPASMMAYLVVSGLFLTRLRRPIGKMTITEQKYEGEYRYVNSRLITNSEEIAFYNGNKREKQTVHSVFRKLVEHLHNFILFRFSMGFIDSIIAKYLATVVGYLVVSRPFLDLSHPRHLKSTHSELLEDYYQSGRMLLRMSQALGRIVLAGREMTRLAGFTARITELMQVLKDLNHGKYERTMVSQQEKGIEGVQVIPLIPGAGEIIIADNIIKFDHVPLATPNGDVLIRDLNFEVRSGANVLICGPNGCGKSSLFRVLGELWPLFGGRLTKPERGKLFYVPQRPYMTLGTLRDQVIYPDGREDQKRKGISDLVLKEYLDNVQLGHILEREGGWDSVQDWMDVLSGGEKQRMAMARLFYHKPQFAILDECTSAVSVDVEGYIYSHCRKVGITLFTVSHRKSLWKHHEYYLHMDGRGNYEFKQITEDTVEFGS
UniProt P29353: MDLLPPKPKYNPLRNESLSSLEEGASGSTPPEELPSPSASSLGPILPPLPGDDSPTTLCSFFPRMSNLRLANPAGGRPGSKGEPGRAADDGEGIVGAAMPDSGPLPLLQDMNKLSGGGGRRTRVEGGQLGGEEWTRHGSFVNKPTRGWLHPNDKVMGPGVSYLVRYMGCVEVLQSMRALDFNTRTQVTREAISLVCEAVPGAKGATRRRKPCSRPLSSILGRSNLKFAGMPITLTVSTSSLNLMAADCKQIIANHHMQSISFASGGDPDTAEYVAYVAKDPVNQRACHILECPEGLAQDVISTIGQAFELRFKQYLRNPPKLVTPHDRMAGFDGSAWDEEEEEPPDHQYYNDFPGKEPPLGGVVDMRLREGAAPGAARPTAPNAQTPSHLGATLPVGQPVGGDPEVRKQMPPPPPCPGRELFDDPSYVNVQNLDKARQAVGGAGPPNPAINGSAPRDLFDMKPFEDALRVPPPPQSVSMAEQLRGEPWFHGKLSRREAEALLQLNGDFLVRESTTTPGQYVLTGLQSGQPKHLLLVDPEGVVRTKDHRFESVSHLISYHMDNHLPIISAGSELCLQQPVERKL
UniProt P30711: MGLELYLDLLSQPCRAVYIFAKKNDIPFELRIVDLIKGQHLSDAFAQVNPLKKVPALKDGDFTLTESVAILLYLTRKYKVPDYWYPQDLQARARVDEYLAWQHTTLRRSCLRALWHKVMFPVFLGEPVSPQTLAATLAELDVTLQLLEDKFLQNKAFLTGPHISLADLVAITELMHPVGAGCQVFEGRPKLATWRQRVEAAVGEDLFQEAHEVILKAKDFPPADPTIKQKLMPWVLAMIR
UniProt P30530, whole entry: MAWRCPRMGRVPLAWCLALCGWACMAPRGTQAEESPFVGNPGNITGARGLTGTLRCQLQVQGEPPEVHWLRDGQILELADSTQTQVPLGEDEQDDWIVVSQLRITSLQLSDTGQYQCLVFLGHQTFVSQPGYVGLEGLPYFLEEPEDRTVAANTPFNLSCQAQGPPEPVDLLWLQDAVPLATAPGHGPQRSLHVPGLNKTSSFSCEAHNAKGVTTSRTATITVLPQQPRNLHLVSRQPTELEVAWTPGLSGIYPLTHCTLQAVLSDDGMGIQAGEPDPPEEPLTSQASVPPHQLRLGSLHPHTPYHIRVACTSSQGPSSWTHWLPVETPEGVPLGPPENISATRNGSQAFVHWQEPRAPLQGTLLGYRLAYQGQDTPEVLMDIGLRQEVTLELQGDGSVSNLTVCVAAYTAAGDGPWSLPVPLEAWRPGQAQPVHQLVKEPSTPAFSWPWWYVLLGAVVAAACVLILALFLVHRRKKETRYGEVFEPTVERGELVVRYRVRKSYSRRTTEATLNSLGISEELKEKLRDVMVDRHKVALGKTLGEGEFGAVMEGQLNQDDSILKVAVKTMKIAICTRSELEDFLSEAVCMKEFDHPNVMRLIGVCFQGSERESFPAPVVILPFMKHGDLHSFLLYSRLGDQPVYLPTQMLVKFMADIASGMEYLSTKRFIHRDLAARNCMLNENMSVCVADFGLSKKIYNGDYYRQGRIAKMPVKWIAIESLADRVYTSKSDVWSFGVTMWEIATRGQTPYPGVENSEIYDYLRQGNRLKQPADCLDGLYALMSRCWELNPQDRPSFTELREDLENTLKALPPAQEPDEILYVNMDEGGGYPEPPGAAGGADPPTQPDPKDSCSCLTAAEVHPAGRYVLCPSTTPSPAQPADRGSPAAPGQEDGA

Compound in this assay: CCc1cnccc1C(=O)Nc1cc2c(cc1F)NC(=O)CC2
In words: melting temperature shift (DMSO Tm minus MBE1-treated Tm) in cellular thermal proteome profiling; higher = less thermal stabilization by MBE1 (negative = stabilized by MBE1). As to conditions: A375.

This is one part of the list. This is a noisy data set.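 Many melting curves are irregular; where none melted, Tm was taken as 64 °C.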

For ALDH1B1 (UniProt P30837), the melting temperature shift reads like this: (MBE1 concentration: 100 nM) -0.651 °C; (MBE1 concentration: 1 uM) 0.0268 °C.

On to GTF2H1 (UniProt P32780), for which the melting temperature shift (MBE1 concentration: 100 nM) is -0.653 °C and the melting temperature shift (MBE1 concentration: 1 uM) was -0.263 °C.

Turning to SPR (UniProt P35270), the melting temperature shift is, setting by setting: (MBE1 concentration: 100 nM) -0.248 °C; (MBE1 concentration: 1 uM) 0.418 °C.

For the target UniProt P27338, the melting temperature shift is, setting by setting: (MBE1 concentration: 100 nM) -5.16 °C; (MBE1 concentration: 1 uM) -2.5 °C.

On to BLVRB (UniProt P30043), for which the melting temperature shift runs as follows: (MBE1 concentration: 100 nM) 0.891 °C; (MBE1 concentration: 1 uM) 0.507 °C.

As to POLR2B (UniProt P30876), the melting temperature shift was determined as 0.679 °C (MBE1 concentration: 100 nM) and 0.104 °C (MBE1 concentration: 1 uM).

For the target SDHA (UniProt P31040), the melting temperature shift is, setting by setting: (MBE1 concentration: 100 nM) -0.508 °C; (MBE1 concentration: 1 uM) -0.2 °C.

As to S100A11 (UniProt P31949), the melting temperature shift by setting is: (MBE1 concentration: 100 nM) -1.11 °C; (MBE1 concentration: 1 uM) -2.02 °C.

On to POLR2I (UniProt P36954), for which the melting temperature shift is, setting by setting: (MBE1 concentration: 100 nM) -0.749 °C; (MBE1 concentration: 1 uM) 1.34 °C.

With MSH3 (UniProt P20585), the melting temperature shift runs as follows: (MBE1 concentration: 100 nM) 1.12 °C; (MBE1 concentration: 1 uM) 0.525 °C.

As to HMGB2 (UniProt P26583), the melting temperature shift by setting is: (MBE1 concentration: 100 nM) -4.35 °C; (MBE1 concentration: 1 uM) -2.79 °C.

As for HSPA4 (UniProt P34932), the melting temperature shift runs as follows: (MBE1 concentration: 100 nM) -0.0366 °C; (MBE1 concentration: 1 uM) 0.287 °C.

PRKAR1B (UniProt P31321): the melting temperature shift turned out to be 0.812 °C (MBE1 concentration: 100 nM) and 0.482 °C (MBE1 concentration: 1 uM).

With ABCD3 (UniProt P28288), the melting temperature shift reads like this: (MBE1 concentration: 100 nM) -0.577 °C; (MBE1 concentration: 1 uM) 0.677 °C.

For the target RPL10 (UniProt P27635), the melting temperature shift by setting is: (MBE1 concentration: 100 nM) -1.07 °C; (MBE1 concentration: 1 uM) 0.456 °C.

As to EPHA3 (UniProt P29320), the melting temperature shift is, setting by setting: (MBE1 concentration: 100 nM) 1.28 °C; (MBE1 concentration: 1 uM) 0.372 °C.

As to SHC1 (UniProt P29353), the melting temperature shift is, setting by setting: (MBE1 concentration: 100 nM) -1.03 °C; (MBE1 concentration: 1 uM) 0.446 °C.

As to HMOX2 (UniProt P30519), the melting temperature shift reads like this: (MBE1 concentration: 100 nM) 0.189 °C; (MBE1 concentration: 1 uM) 0.0366 °C.

On to UQCRC2 (UniProt P22695), for which the melting temperature shift (MBE1 concentration: 100 nM) is -0.971 °C and the melting temperature shift (MBE1 concentration: 1 uM) is -1.12 °C.

As for GSTT1 (UniProt P30711), the melting temperature shift was -3.14 °C (MBE1 concentration: 100 nM) and -3.02 °C (MBE1 concentration: 1 uM).

AXL (UniProt P30530): the melting temperature shift reads like this: (MBE1 concentration: 100 nM) 0.629 °C; (MBE1 concentration: 1 uM) 0.342 °C.

For CANX (UniProt P27824), the melting temperature shift (MBE1 concentration: 100 nM) is -1.07 °C and the melting temperature shift (MBE1 concentration: 1 uM) amounted to 0.0604 °C.
